Data taken from publication doi:10.1101/2020.09.15.298083.
No constants are given. Whether binding was seen depends on the method and setting. In cells and extracts the contact can be indirect. Some binding calls cover weakened binding; strength is not graded here.

T1: CEP63 (human (endogenous in U87, 293T/17 and HeLa)) (UniProt Q96MT8)
T1 sequence: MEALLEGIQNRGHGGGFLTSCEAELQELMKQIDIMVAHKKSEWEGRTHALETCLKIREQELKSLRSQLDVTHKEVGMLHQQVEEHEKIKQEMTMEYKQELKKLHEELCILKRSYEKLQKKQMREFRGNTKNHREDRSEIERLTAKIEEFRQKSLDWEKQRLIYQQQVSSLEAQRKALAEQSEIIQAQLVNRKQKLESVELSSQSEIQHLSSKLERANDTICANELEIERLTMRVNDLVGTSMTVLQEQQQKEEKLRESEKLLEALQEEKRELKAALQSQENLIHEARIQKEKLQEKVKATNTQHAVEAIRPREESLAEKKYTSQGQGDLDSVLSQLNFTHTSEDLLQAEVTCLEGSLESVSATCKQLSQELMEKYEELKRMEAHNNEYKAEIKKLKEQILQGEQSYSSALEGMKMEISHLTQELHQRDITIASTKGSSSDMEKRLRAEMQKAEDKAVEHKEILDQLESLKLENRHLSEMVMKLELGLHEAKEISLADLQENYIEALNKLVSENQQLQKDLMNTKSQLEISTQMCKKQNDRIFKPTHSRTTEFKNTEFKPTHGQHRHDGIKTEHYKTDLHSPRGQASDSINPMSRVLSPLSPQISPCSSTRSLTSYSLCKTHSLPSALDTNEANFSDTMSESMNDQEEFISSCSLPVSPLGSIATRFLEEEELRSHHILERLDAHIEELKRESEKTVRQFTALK


Target: T1, CEP63 (human (endogenous in U87, 293T/17 and HeLa))
Assay: co-IP

| Binder | binding |
| --- | --- |
| TANK-binding kinase 1 (TBK1) (protein, UniProt Q9UHD2 1-729) MQSTSNHLWLLSDILGQGATANVFRGRHKKTGDLFAIKVFNNISFLRPVDVQMREFEVLKKLNHKNIVKLFAIEEETTTRHKVLIMEFCPCGSLYTVLEEPSNAYGLPESEFLIVLRDVVGGMNHLRENGIVHRDIKPGNIMRVIGEDGQSVYKLTDFGAARELEDDEQFVSLYGTEEYLHPDMYERAVLRKDHQKKYGATVDLWSIGVTFYHAATGSLPFRPFEGPRRNKEVMYKIITGKPSGAISGVQKAENGPIDWSGDMPVSCSLSRGLQVLLTPVLANILEADQEKCWGFDQFFAETSDILHRMVIHVFSLQQMTAHKIYIHSYNTATIFHELVYKQTKIISSNQELIYEGRRLVLEPGRLAQHFPKTTEENPIFVVSREPLNTIGLIYEKISLPKVHPRYDLDGDASMAKAITGVVCYACRIASTLLLYQELMRKGIRWLIELIKDDYNETVHKKTEVVITLDFCIRNIEKTVKVYEKLMKINLEAAELGEISDIHTKLLRLSSSQGTIETSLQDIDSRLSPGGSLADAWAHQEGTHPKDRNVEKLQVLLNCMTEIYYQFKKDKAERRLAYNEEQIHKFDKQKLYYHATKAMTHFTDECVKKYEAFLNKSEEWIRKMLHLRKQLLSLTNQCFDIEEEVSKYQEYTNELQETLPQKMFTASSGIKHTMTPIYPSSNTLVEMTLGMKKLKEEMEGVVKELAENNHILERFGSLTMDGGLRNVDCL | binds |
| DTX4 (protein, UniProt Q9Y2E6 1-619) MLLASAVVVWEWLNEHGRWRPYSPAVSHHIEAVVRAGPRAGGSVVLGQVDSRLAPYIIDLQSMNQFRQDTGTLRPVRRNYYDPSSAPGKGVVWEWENDNGSWTPYDMEVGITIQHAYEKQHPWIDLTSIGFSYVIDFNTMGQINRQTQRQRRVRRRLDLIYPMVTGTLPKAQSWPVSPGPATSPPMSPCSCPQCVLVMSVKAAVVNGSTGPLQLPVTRKNMPPPGVVKLPPLPGSGAKPLDSTGTIRGPLKTAPSQVIRRQASSMPTGTTMGSPASPPGPNSKTGRVALATLNRTNLQRLAIAQSRVLIASGVPTVPVKNLNGSSPVNPALAGITGILMSAAGLPVCLTRPPKLVLHPPPVSKSEIKSIPGVSNTSRKTTKKQAKKGKTPEEVLKKYLQKVRHPPDEDCTICMERLTAPSGYKGPQPTVKPDLVGKLSRCGHVYHIYCLVAMYNNGNKDGSLQCPTCKTIYGVKTGTQPPGKMEYHLIPHSLPGHPDCKTIRIIYSIPPGIQGPEHPNPGKSFSARGFPRHCYLPDSEKGRKVLKLLLVAWDRRLIFAIGTSSTTGESDTVIWNEVHHKTEFGSNLTGHGYPDANYLDNVLAELAAQGISEDSTAQEKD | binds |
